Measured data: PubChem BioAssay AID1224826 (NIAID, 2016)
Assay: 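Regulators of Tlr4 signalling leading to Tnf-alpha expression in macrophages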 (primary screen). Cell system: RAW264.7 G9 macrophages from mouse bearing reporters for p65 (GFP) and the Tnf promoter (mCherry). Knock-down reagent: siRNA pool against mouse genes, 100 nM. Duration: 16 h of LPS stimulation, after 2 days of siRNA transfection. Challenge: bacterial lipopolysaccharide (Salmonella minnesota R595), 10 ng/ml. Measurement: 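Imaged Tnf reporter mCherry in nuclei, minus background, normalised per plate to the median and expressed as robust z-scores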. Scale: Tnf reporter robust z-score: higher = stronger Tnf promoter reporter signal after LPS. Active means: 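Called active when robust z-score is at most -1.3, matching the median of the Tlr4 knock-down control, or over 3; control wells and wells with under 50 cells never active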. Calls: active = Tnf reporter clearly lowered or raised; inactive = no clear change in Tnf reporter.
Shown is a random part of about 17,000 reagents. About 1,110 of them (6.6%) were called active. 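Active means lowered or raised reporter signal; replicate intensities are raw and not normalised per plate.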 Not all columns of the deposit are shown.

After knock-down of Eif5b (eukaryotic translation initiation factor 5B), the record shows Tnf reporter robust z-score -0.68; fewer than 50 cells in well enough cells in well; inactive. AI182371 (expressed sequence AI182371) gave Tnf reporter robust z-score -0.16; fewer than 50 cells in well enough cells in well; inactive. Ninj2 (ninjurin 2) showed Tnf reporter robust z-score 1.85; fewer than 50 cells in well enough cells in well; inactive. Knock-down of Sh3bp4 (SH3-domain binding protein 4) resulted in: Tnf reporter robust z-score 0.58; fewer than 50 cells in well enough cells in well; inactive. Or10ab5 (olfactory receptor family 10 subfamily AB member 5) showed Tnf reporter robust z-score 0.39; fewer than 50 cells in well enough cells in well; inactive. For Slx4ip (SLX4 interacting protein), the entry reads fewer than 50 cells in well fewer than 50 cells per well; well left out of calls; inactive.

For 1700001O22Rik (RIKEN cDNA 1700001O22 gene) the deposit lists Tnf reporter robust z-score -0.34; fewer than 50 cells in well enough cells in well; inactive. Crk (Crk proto-oncogene, adaptor protein) gave Tnf reporter robust z-score -0.95; fewer than 50 cells in well enough cells in well; inactive. Clca2 (chloride channel accessory 2) gave Tnf reporter robust z-score -0.7; fewer than 50 cells in well enough cells in well; inactive. Desi1 (desumoylating isopeptidase 1) showed Tnf reporter robust z-score -0.33; fewer than 50 cells in well enough cells in well; inactive. Pxdc1 (PX domain containing 1) scored Tnf reporter robust z-score 0.7; fewer than 50 cells in well enough cells in well; inactive. Knock-down of Mpi (mannose phosphate isomerase) came out at: Tnf reporter robust z-score 0.61; fewer than 50 cells in well enough cells in well; inactive.

Or5p4 (olfactory receptor family 5 subfamily P member 4) scored Tnf reporter robust z-score 0.05; fewer than 50 cells in well enough cells in well; inactive. Cept1 (choline/ethanolaminephosphotransferase 1) showed Tnf reporter robust z-score 1.35; fewer than 50 cells in well enough cells in well; inactive. After knock-down of Acadl (acyl-Coenzyme A dehydrogenase, long-chain), the screen gave Tnf reporter robust z-score -0.08; fewer than 50 cells in well enough cells in well; inactive. After knock-down of Ccnj (cyclin J), the record shows Tnf reporter robust z-score -0.69; fewer than 50 cells in well enough cells in well; inactive. Depletion of Abcc2 (ATP-binding cassette, sub-family C member 2) came out at: Tnf reporter robust z-score 0.08; fewer than 50 cells in well enough cells in well; inactive. Ube3b (ubiquitin protein ligase E3B) showed Tnf reporter robust z-score -0.16; fewer than 50 cells in well enough cells in well; inactive.

Knock-down of Dnajc6 (DnaJ heat shock protein family (Hsp40) member C6) came out at: fewer than 50 cells in well fewer than 50 cells per well; well left out of calls; inactive. Silencing of Fam20a (FAM20A, golgi associated secretory pathway pseudokinase) came out at: Tnf reporter robust z-score -0.13; fewer than 50 cells in well enough cells in well; inactive. Depletion of Alyreffm1 (Aly/REF export factor family member 1) gave: Tnf reporter robust z-score -0.32; fewer than 50 cells in well enough cells in well; inactive.

Single entries from above.
For “Call”, Pxdc1 (PX domain containing 1) reads inactive
For “Tnf reporter robust z-score”, Fam20a (FAM20A, golgi associated secretory pathway pseudokinase) reads -0.13
